Measured values published in EP0617288B1, “Long emission wavelength chemiluminescent compounds and their use in test assays” (Novartis AG, priority 1993, dated 1994).
At least one structure is not confirmed: it was looked up by name or label, or the drawing left a doubt.

What was measured:
[1] = Kinetic study on light emission (time course up to 10 seconds); type: physicochemical; conditions: normalized to 10 seconds
Protocol: A time course study over a period of up to 10 seconds was conducted to determine these percentages, by flashing the compounds and normalizing all the signals collected for different lengths of time to that of 10 seconds.

[2] = Light emission spectra by Fast Spectral Scanning System (FSSS); type: physicochemical
Protocol: The light emission spectra of LBAC's and the reference acridinium esters were determined by a Fast Spectral Scanning System (FSSS) of Photo Research (a division of Kollmorgen Corp) of Burbank, CA, U.S.A. The experiment was carried out in a dark room. Each sample was dissolved in HPLC grade acetonitrile at the concentration of 1 mg/ml or higher and diluted with the same solvent to obtain the sample solution in the concentration specified. A typical determination utilized 10 to 100 ug of each compound, with the exception of the angular benz[a]acridinium ester (2 mg), separately or mixed together in 0.5 ml acetonitrile contained in 13 x 100 mm borosilicate test tube. The tube was placed on a tube rack raised to a proper height. The FSSS optical head was placed in front of the tube at close distance and with its lens focused on the liquid in the tube. The sample solution was first treated with 0.35 ml of the Flashing Reagent #1 (Ciba Corning Diagnostics) containing 0.1 N HNO3 and 0.1% H2O2. […] The light which was generated instantaneously following the addition of the Reagent #2 was recorded by FSSS for 4 seconds except for 2-MeO-LEAE-Imidate which was recorded for 30 seconds starting from split second before the Reagent #2 was added.
Recorded emission spectra are shown in FIGS. 2A-2E, 3A-3J, and 4A-4D. FIGS. 2A-2E and 3A-3J show individual emission spectra of chemiluminescent compounds including an acridinium ring system and compounds including a benzacridinium ring system. […] The major portions of the original constituting spectra which remained unchanged were indeed non-overlapping. These important physical characteristics fulfill the prerequisite for two or more subclasses of chemiluminescent compounds to be utilized in test assays for detecting and/or quantitating at least two substances in a test sample, and particularly to multianalyte clinical diagnostic assays.

For CC[N+](C)(CC)CCOc1ccc2c(C(=O)Oc3c(C)cc(C(=O)OCc4ccccc4)cc3C)c3cc4ccccc4cc3[n+](C)c2c1 [3-QAE-LEAE-Bz, (4-Benzyloxycarbonyl-2,6-dimethyl)phenyl 3-(N,N-Diethyl-N-methyl-ammonium)ethoxy-5-methyl-benz[b]acridinium-12-carboxylate Difluorosulfonate], the “Percent signal released over different lengths of time” value ([1]; 0.5 s) was 34%, the “Percent signal released over different lengths of time” value ([1]; 1.0 s) was 75% and the “Percent signal released over different lengths of time” value ([1]; 2.0 s) was 84%. The “Percent signal released over different lengths of time” value ([1]; 4.0 s) was 88%, the “Percent signal released over different lengths of time” value ([1]; 6.0 s) was 91% and the “Percent signal released over different lengths of time” value ([1]; 10.0 s) was 100%. For the same compound, the emission spectrum peak ([2]; figure legends FIGS. 2A-2E, 3A-3J) was “≈ 544 nm”, the “Emission Max” value ([2]; in 0.5 ml acetonitrile, Flashing Reagent #1 and #2, maximum could vary by 0-4 nm between determinations) was 544 nm and the Range ([2]; spectral region with signal intensity of above 5% of peak height) was 470-680 nm.
